# The supplement of paper PMC10849652
# Chains of the proteins cited; added tags and fusions are not shown. Lines headed by an entry give the natural chain unless they say otherwise; changes in a name come on top.
# UniProt O95620: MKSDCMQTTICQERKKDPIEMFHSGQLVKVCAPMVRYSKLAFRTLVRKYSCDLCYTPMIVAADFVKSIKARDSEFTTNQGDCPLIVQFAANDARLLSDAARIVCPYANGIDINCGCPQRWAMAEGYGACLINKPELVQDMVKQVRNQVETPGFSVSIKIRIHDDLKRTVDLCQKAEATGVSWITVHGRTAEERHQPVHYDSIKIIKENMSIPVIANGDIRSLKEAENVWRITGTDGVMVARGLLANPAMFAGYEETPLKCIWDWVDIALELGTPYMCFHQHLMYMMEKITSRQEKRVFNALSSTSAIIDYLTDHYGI
# UniProt Q13011: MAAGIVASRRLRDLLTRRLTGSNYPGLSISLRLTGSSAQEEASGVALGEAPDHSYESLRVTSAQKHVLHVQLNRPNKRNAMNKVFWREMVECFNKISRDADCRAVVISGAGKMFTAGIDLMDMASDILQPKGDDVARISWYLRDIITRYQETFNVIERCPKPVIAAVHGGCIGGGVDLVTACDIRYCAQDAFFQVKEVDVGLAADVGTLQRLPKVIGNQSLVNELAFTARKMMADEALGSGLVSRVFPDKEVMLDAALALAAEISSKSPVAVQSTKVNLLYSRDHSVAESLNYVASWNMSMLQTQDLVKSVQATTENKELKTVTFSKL
# UniProt Q02487, whole entry, looked up: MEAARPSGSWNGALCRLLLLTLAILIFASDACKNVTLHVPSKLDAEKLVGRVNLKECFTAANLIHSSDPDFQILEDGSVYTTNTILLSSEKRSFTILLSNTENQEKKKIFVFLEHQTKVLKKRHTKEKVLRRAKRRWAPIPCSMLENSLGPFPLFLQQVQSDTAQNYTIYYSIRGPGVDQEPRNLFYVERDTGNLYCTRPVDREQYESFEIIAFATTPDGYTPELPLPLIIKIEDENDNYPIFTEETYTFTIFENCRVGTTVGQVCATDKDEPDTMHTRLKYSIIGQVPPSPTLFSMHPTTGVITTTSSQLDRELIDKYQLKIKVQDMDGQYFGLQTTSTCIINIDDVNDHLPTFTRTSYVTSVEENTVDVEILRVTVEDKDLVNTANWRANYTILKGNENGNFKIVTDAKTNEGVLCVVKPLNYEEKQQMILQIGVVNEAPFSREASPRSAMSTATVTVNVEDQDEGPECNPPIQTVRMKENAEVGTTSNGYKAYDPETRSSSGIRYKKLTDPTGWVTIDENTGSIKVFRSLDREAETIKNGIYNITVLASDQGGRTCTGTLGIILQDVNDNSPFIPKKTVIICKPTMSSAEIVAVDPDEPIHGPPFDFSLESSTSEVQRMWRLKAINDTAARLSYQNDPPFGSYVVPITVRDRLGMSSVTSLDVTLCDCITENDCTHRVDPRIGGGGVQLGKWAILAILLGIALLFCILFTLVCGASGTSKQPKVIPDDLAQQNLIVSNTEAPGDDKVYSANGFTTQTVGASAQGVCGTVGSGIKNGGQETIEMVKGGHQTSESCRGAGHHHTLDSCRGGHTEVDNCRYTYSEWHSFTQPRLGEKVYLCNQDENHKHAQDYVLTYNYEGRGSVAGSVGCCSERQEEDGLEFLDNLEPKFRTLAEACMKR
# UniProt Q92782, whole entry, looked up: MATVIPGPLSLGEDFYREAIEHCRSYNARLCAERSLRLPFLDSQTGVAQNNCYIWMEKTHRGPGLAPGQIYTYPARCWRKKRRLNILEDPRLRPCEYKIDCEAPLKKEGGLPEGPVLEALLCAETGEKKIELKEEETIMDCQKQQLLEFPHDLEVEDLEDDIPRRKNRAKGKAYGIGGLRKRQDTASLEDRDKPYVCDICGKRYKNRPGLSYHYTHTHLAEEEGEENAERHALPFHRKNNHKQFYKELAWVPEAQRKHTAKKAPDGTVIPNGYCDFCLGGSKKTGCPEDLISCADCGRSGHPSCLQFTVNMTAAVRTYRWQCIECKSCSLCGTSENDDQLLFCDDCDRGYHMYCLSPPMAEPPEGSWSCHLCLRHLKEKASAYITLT
# UniProt Q9C005, whole entry, looked up: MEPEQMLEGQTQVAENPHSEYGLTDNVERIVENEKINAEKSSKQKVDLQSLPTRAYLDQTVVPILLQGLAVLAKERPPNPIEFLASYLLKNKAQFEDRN
# UniProt O75071: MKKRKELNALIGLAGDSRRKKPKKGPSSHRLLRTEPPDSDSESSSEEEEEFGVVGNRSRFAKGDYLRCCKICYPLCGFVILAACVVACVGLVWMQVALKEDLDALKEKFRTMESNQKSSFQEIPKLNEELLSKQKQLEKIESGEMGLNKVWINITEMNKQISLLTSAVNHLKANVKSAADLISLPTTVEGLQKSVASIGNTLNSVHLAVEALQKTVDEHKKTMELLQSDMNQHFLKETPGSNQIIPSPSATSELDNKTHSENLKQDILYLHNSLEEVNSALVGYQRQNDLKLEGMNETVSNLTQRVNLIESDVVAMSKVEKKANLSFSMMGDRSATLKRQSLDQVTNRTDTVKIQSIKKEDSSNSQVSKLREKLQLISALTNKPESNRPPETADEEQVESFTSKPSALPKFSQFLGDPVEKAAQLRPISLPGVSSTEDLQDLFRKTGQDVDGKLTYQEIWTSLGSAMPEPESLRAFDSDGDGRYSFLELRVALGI
# UniProt Q9UNI6, whole entry, looked up: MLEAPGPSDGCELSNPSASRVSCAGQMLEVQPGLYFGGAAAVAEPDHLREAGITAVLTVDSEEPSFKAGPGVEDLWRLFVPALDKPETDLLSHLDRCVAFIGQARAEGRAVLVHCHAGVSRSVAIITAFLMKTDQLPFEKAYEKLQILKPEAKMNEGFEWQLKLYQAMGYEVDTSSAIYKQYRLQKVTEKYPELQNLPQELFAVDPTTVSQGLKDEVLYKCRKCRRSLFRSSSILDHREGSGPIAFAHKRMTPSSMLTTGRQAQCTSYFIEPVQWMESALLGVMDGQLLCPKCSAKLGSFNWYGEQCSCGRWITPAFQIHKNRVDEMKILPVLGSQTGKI
# UniProt Q8N5C7: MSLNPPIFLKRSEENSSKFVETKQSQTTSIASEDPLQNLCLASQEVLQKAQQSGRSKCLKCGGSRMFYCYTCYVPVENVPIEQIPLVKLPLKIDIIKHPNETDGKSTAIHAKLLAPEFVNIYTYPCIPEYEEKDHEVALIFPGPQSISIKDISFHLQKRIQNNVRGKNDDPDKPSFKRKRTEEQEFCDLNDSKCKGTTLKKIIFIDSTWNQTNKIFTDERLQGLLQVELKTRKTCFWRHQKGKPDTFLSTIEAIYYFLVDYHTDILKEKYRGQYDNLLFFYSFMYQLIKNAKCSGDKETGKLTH
# UniProt P47813, whole entry, looked up: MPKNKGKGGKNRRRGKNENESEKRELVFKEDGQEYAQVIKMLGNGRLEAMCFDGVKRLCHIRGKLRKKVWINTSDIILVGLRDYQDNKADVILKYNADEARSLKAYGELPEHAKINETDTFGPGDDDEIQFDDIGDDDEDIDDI
# UniProt Q9BZQ6: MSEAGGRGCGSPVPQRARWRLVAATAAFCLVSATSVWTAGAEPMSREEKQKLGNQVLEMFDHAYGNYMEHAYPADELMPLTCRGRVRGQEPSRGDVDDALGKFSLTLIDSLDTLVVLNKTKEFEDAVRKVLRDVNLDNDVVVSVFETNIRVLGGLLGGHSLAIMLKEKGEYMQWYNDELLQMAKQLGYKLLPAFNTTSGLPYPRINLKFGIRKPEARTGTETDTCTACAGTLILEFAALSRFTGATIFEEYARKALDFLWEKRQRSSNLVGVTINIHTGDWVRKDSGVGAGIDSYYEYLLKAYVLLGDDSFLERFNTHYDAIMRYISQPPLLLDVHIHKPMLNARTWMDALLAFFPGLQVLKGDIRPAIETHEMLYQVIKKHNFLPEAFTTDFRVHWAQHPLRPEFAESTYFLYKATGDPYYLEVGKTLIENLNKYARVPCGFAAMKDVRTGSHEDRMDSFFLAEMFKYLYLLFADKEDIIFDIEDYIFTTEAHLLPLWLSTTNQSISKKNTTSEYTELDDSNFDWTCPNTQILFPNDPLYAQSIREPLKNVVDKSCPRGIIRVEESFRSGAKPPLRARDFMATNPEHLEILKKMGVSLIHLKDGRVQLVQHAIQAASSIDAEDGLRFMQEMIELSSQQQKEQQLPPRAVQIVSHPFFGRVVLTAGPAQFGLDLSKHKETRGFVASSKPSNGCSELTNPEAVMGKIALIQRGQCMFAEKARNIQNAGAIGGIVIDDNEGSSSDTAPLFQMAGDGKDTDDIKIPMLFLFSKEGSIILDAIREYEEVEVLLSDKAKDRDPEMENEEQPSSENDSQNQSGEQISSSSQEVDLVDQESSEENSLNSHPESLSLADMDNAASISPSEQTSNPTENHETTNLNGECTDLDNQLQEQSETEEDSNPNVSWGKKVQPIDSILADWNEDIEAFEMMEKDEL
# UniProt Q99956: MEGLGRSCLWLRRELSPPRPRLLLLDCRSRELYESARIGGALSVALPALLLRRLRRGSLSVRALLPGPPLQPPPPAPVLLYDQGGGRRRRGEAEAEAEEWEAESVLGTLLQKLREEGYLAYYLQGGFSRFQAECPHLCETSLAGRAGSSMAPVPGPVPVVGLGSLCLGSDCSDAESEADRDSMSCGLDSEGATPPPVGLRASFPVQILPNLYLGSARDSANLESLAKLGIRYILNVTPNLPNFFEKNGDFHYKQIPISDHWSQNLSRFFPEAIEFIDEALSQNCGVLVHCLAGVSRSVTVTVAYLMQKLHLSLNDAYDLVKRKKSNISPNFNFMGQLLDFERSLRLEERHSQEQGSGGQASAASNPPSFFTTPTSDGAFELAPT
# UniProt Q9NP97, whole entry, looked up: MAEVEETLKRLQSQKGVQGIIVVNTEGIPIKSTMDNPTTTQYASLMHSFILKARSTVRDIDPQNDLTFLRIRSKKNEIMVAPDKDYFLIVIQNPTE
# UniProt Q96DC8: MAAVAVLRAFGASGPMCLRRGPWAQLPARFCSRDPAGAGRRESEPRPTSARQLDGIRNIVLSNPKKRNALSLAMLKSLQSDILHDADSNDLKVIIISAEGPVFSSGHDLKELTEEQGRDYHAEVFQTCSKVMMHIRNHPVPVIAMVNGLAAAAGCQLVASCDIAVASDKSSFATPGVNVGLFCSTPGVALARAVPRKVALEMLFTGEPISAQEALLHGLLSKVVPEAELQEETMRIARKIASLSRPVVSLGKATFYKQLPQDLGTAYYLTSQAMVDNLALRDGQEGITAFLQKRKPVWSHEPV
# UniProt Q6V1X1: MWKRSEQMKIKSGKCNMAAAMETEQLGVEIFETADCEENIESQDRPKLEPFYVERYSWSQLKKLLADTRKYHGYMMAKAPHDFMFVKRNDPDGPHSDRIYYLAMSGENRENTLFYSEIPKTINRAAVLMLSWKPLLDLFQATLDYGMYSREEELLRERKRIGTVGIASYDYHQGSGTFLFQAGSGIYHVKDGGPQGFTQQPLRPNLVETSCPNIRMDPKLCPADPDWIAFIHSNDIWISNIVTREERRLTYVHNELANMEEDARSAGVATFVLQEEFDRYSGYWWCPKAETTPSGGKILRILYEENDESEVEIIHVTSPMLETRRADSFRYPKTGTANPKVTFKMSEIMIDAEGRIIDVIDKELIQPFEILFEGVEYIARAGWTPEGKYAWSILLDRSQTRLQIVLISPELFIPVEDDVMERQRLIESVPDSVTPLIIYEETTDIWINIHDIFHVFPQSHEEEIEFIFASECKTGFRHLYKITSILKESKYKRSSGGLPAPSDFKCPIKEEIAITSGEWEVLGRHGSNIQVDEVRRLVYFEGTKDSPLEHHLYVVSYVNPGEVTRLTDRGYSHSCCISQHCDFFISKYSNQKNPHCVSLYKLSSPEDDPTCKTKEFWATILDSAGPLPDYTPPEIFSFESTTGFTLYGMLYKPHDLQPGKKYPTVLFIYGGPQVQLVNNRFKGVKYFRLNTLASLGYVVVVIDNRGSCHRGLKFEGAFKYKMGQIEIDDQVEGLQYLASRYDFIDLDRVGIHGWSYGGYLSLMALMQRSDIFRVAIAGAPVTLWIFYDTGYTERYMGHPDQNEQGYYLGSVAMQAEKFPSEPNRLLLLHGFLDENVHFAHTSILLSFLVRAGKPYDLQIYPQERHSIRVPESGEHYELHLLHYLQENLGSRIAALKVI
# UniProt Q7RTS9: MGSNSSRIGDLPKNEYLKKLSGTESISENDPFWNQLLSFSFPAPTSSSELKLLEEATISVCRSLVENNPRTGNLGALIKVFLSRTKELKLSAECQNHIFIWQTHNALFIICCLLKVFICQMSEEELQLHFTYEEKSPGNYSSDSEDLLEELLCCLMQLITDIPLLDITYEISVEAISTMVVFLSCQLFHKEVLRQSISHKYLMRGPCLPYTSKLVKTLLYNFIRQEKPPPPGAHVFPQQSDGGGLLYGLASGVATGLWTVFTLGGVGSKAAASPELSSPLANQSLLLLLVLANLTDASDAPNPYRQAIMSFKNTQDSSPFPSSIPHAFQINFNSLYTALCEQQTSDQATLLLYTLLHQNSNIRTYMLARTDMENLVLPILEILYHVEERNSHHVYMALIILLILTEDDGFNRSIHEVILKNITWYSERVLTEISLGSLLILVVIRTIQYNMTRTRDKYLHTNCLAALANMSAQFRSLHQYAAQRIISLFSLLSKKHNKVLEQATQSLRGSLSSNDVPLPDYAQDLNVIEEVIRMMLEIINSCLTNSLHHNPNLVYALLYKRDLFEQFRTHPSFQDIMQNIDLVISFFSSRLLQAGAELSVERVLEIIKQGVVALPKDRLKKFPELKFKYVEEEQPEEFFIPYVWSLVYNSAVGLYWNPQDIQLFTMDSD
# This is one part of the list.
# Assays:
# Experiment in all cases: log2 fold change, soluble protein after heating vs DMSO (PISA); higher = thermal stabilisation; K562 lysate, 10 uM; active = over 0.2 and 3.5 SD of the protein, either way, in both replicates (recomputed)
# [1] = compound: NCC(=O)Nc1ccc(-n2nc(C(F)(F)F)cc2-c2ccc3c(ccc4ccccc43)c2)cc1
# How it was run: (§1)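 Following dounce homogenisation of K562 pellets in PBS pH 7.4 with 1 mM MgCl2, crude extract at 1 mg/mL protein was incubated for 30 min with 10 μM compound. Aliquots were then heated for 3 min over 48°C-58°C and pooled, NP-40 was added to 0.5% at 4°C, and soluble protein was recovered as the supernatant at 21,000xg for 90 min. Channel-sum-equalised TMTpro 16plex LC-MS/MS quantified this protein. Each value, from duplicates, is a log-two fold change in thermal stability relative to solvent controls.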
# vorinostat = compound: O=C(CCCCCCC(=O)Nc1ccccc1)NO [vorinostat]
# How it was run: as §1
# silmitasertib = compound: O=C(O)c1ccc2c(c1)nc(Nc1cccc(Cl)c1)c1ccncc12 [silmitasertib]
# How it was run: as §1
# [2] = compound: O=C1NC(=O)C(c2cnc3ccccn23)=C1c1cn2c3c(cc(F)cc13)CN(C(=O)N1CCCCC1)CC2
# How it was run: as §1
# entospletinib = compound: c1cn2cc(-c3ccc4cn[nH]c4c3)nc(Nc3ccc(N4CCOCC4)cc3)c2n1 [entospletinib]
# How it was run: as §1
Target,log2 fold change [1],log2 fold change (vorinostat),log2 fold change (silmitasertib),log2 fold change [2],log2 fold change (entospletinib)
DUS4L (UniProt O95620),inactive: -0.041,inactive: 0.014,inactive: 0.072,inactive: 0.029,inactive: -0.01
EEA1 (UniProt Q15075),inactive: -0.004,inactive: 0.091,inactive: -0.018,inactive: 0,inactive: -0.012
ECH1 (UniProt Q13011),inactive: 0.041,inactive: 0.081,inactive: -0.026,inactive: -0.052,inactive: 0.022
EIF1AD (UniProt Q8N9N8),inactive: -0.038,inactive: 0.003,inactive: -0.007,inactive: -0.005,inactive: -0.009
ECPAS (UniProt Q5VYK3),inactive: 0.023,inactive: -0.106,inactive: 0.025,inactive: 0.007,inactive: 0.003
DSC2 (UniProt Q02487),inactive: -0.029,inactive: 0.146,inactive: 0.07,inactive: -0.115,inactive: 0.133
DPYSL2 (UniProt Q16555),inactive: -0.009,inactive: 0.045,inactive: -0.052,inactive: 0.035,inactive: 0.078
DYRK1A (UniProt Q13627),inactive: 0.021,inactive: -0.253,active: 0.247,inactive: 0.01,inactive: 0.005
DUT (UniProt P33316),inactive: 0.025,inactive: 0.071,inactive: -0.018,inactive: 0.002,inactive: 0.003
DSN1 (UniProt Q9H410),inactive: -0.028,active: -0.358,inactive: -0.007,inactive: 0.008,inactive: -0.017
EIF2A (UniProt Q9BY44),inactive: -0.001,inactive: 0.114,inactive: -0.027,inactive: 0.004,inactive: 0.015
ECD isoform 3 (UniProt O95905),inactive: 0.025,inactive: -0.068,inactive: -0.032,inactive: -0.013,inactive: -0.009
DPF1 isoform 2 (UniProt Q92782),inactive: -0.077,inactive: -0.055,inactive: 0.127,inactive: 0.036,inactive: -0.027
EDF1 (UniProt O60869),inactive: 0.021,inactive: 0.134,inactive: -0.035,inactive: 0.048,inactive: 0.011
"DPY19L1, A0A1B0GW05",inactive: -0.04,inactive: 0.148,inactive: -0.018,inactive: 0.025,inactive: -0.024
ECM1 isoform 4 (UniProt Q16610),inactive: -0.022,inactive: 0.045,inactive: -0.022,inactive: 0.059,inactive: -0.025
EEF1AKNMT (UniProt Q8N6R0),inactive: -0.004,active: -0.414,inactive: 0.076,inactive: -0.005,inactive: 0.026
DPY30 (UniProt Q9C005),inactive: 0.111,inactive: 0.133,inactive: -0.046,inactive: 0.071,inactive: -0.068
DYNLT1 (UniProt P63172),inactive: 0.061,inactive: -0.112,inactive: 0.038,inactive: 0.037,inactive: -0.045
DYNC1H1 (UniProt Q14204),inactive: 0.003,inactive: -0.083,inactive: 0.022,inactive: 0.004,inactive: 0.01
EFCAB14 (UniProt O75071),inactive: 0.039,active: 0.327,inactive: -0.054,inactive: 0.029,inactive: 0.013
DUSP12 (UniProt Q9UNI6),inactive: 0.009,inactive: 0.031,inactive: 0.028,inactive: -0.016,inactive: 0.007
EEF2 (UniProt P13639),inactive: 0.011,inactive: 0.023,inactive: 0.012,inactive: 0.014,inactive: -0.004
DRG1 (UniProt Q9Y295),inactive: -0.009,inactive: 0.068,inactive: -0.025,inactive: -0.015,inactive: 0.003
DTWD1 (UniProt Q8N5C7),inactive: 0.059,active: -0.27,inactive: -0.022,inactive: -0.028,inactive: 0.036
EIF1 (UniProt P41567),inactive: -0.032,inactive: 0.12,inactive: -0.024,inactive: 0.036,inactive: 0.028
DTYMK (UniProt P23919),inactive: -0.022,active: -0.294,inactive: 0.071,inactive: -0.023,inactive: 0.061

# Full records, quoted from the list:
# DSC2 (UniProt Q02487) reads log2 fold change [1]: inactive: -0.029; log2 fold change (vorinostat): inactive: 0.146; log2 fold change (silmitasertib): inactive: 0.07; log2 fold change [2]: inactive: -0.115; log2 fold change (entospletinib): inactive: 0.133
# DYNLT1 (UniProt P63172) reads log2 fold change [1]: inactive: 0.061; log2 fold change (vorinostat): inactive: -0.112; log2 fold change (silmitasertib): inactive: 0.038; log2 fold change [2]: inactive: 0.037; log2 fold change (entospletinib): inactive: -0.045
# EIF2A (UniProt Q9BY44) reads log2 fold change [1]: inactive: -0.001; log2 fold change (vorinostat): inactive: 0.114; log2 fold change (silmitasertib): inactive: -0.027; log2 fold change [2]: inactive: 0.004; log2 fold change (entospletinib): inactive: 0.015
# EEA1 (UniProt Q15075) reads log2 fold change [1]: inactive: -0.004; log2 fold change (vorinostat): inactive: 0.091; log2 fold change (silmitasertib): inactive: -0.018; log2 fold change [2]: inactive: 0; log2 fold change (entospletinib): inactive: -0.012

# (continued)

Target,log2 fold change [1],log2 fold change (vorinostat),log2 fold change (silmitasertib),log2 fold change [2],log2 fold change (entospletinib)
EHMT1 (UniProt Q9H9B1),inactive: 0.085,inactive: -0.107,inactive: -0.049,inactive: -0.005,inactive: -0.014
EIF1AX (UniProt P47813),inactive: 0.025,inactive: 0.047,inactive: 0.06,inactive: 0.012,inactive: 0.038
EHMT2 (UniProt A2ABF8),inactive: -0.027,inactive: -0.128,inactive: 0.015,inactive: -0.009,inactive: -0.017
EHD1 (UniProt Q9H4M9),inactive: 0.011,inactive: 0.018,inactive: -0.017,inactive: 0.019,inactive: -0.019
EDEM3 (UniProt Q9BZQ6),inactive: 0.022,inactive: 0.016,inactive: -0.047,inactive: -0.036,inactive: -0.045
DUSP9 (UniProt Q99956),inactive: -0.046,inactive: -0.328,inactive: 0.045,inactive: -0.019,inactive: -0.059
EI24 (UniProt O14681),inactive: -0.118,inactive: 0.02,inactive: 0.07,inactive: 0.06,inactive: 0.023
DYNLRB1 (UniProt Q9NP97),inactive: -0.023,inactive: 0.124,inactive: -0.048,inactive: 0.07,inactive: -0.086
EEF1A1P5 (UniProt Q5VTE0),inactive: 0.04,active: -0.311,inactive: -0.017,inactive: 0.005,inactive: 0.033
EFL1 (UniProt Q7Z2Z2),inactive: 0.01,inactive: -0.105,inactive: 0.015,inactive: -0.003,inactive: 0.009
DROSHA (UniProt Q9NRR4),inactive: 0.051,inactive: -0.294,inactive: -0.026,inactive: -0.052,inactive: -0.086
ECHDC3 (UniProt Q96DC8),inactive: -0.073,inactive: 0.062,inactive: 0.011,inactive: -0.068,inactive: 0.053
DPH2 (UniProt Q9BQC3),inactive: -0.023,inactive: 0.027,inactive: 0.002,inactive: 0.019,inactive: 0
ECHDC1 (UniProt Q9NTX5),inactive: -0.003,inactive: -0.02,inactive: 0.006,inactive: 0.004,inactive: -0.063
EGLN1 (UniProt Q9GZT9),inactive: 0.008,active: -0.395,inactive: 0.025,inactive: -0.024,inactive: -0.009
DSCC1 (UniProt Q9BVC3),inactive: -0.058,inactive: -0.057,inactive: 0.023,inactive: -0.089,inactive: 0.019
EHD2 (UniProt Q9NZN4),inactive: 0.005,active: -0.282,inactive: 0.073,inactive: 0.018,inactive: 0.032
DRAP1 isoform 2 (UniProt Q14919),inactive: 0.018,inactive: 0.046,inactive: -0.006,inactive: -0.022,inactive: 0.01
DPP8 (UniProt Q6V1X1),inactive: -0.131,inactive: -0.012,inactive: 0.027,inactive: -0.061,inactive: 0.005
EEF2K (UniProt O00418),inactive: 0.01,inactive: -0.159,inactive: 0.01,inactive: -0.006,inactive: 0.009
DYM (UniProt Q7RTS9),inactive: -0.039,inactive: 0.029,inactive: 0.061,inactive: 0.062,inactive: 0.087
DUSP3 (UniProt P51452),inactive: 0.018,inactive: 0.022,inactive: -0.026,inactive: 0.04,inactive: 0.005
DUS1L (UniProt Q6P1R4),inactive: 0.03,inactive: -0.132,inactive: -0.036,inactive: 0.061,inactive: 0.085
DST (UniProt Q03001),inactive: 0.262,inactive: -0.035,inactive: -0.02,inactive: 0.01,inactive: -0.03
DPH7 (UniProt Q9BTV6),inactive: 0.036,inactive: 0.059,inactive: 0.027,inactive: -0.029,inactive: 0.003
EEF1AKMT4 (UniProt P0DPD7),inactive: 0.053,active: -0.312,inactive: 0.029,inactive: 0.035,inactive: 0.012
